# Data: PubChem BioAssay AID1694 (National Center for Advancing Translational Sciences (NCATS), 2009)
# The shares of active, inactive and inconclusive entries below differ from those in the screen. The call rests on the fitted dose curve; in most records, active means well fitted curve in the direction sought with a large enough effect; inconclusive means small, poorly fitted or top-dose-only effect, or another doubt; inactive means no such curve, though single readings can be large or run the other way. A potency beside an inconclusive call is a rough fit, not a confirmed value.
# Assay: Confirmation Concentration-Response Assay for Inhibitors of Tau Fibril Formation, Total Fluorescence Counterscreen for Fluorescence Polarization
# Settings: Alexa594-tau K18 total fluorescence counterscreen, interference; tau K18 with P301L mutation
# Description: NIH Molecular Libraries Probe Production Network [MLPCN] NIH Chemical Genomics Center [NCGC] MLPCN Grant: X01 MH083262-01 Assay Provider: Carlo Ballatore, University of Pennsylvania NCGC Assay Overview: The microtubule-associated protein tau is an abundant protein in the axons of neurons that stabilizes microtubules. With its ability to modulate microtubule dynamics, tau contributes directly or indirectly, to key structural and regulatory cellular functions. Particularly important is the influence tau exerts on axonal transport, which allows signaling molecules, trophic factors and other essential cellular constituents to travel along the axons. […] Total fluorescence (555 nm excitation and 632 nm emission) was measured to identify fluorescent or absorbent compounds at this wavelength. Such compounds may be artifacts that interfere with the Alexa 594 Tau fluorescence polarization assay. […]
# For screening, 2 uL/well human K18 P301L (15 uM unlabeled and 0.24 uM Alexa 594-labeled tau final concentrations) in reagent buffer (100 mM sodium acetate pH 7) was dispensed into black solid 1536-well plates (Grenier) using a solenoid-based dispenser. […] After a 1 hr ambient incubation, the plates were read by an Envision (Perkin Elmer) to monitor Alexa 594 FP (555 nm excitation and 632 nm emission). […]
smiles,measurement,value
CC(N)[C@H](O)c1ccc(O)c(O)c1 (stereo partly specified),Potency,"inconclusive: 6.31 µM [falling, full curve, poor fit]"
